Drawing on patent publication US20050112168A1, this text covers binding for one molecule.

In assay [1] the target is GAL-4-BD-TRAP fusion protein (human). In words: mammalian two-hybrid luciferase assay.
Assay [2] shares this target. In words: mammalian two-hybrid luciferase assay (FIG. 12).

No constants are given. Whether binding was seen depends on the method and setting. Some entries that bind do so weakly or less than the wild type. Tags and fused reporters may be left off the sequences shown.

B1: VP-16-AD-GPC4 fusion protein (full length glypican 4) (protein)
chain: ALLAAELKSKSCSEVRRLYVSKGFNKNDAPLHEINGDHLKICPQGSTCCSQEMEEKYSLQSKDDFKSVVSEQCNHLQAVFASRYKKFDEFFKELLENAEKSLNDMFVKTYGHLYMQNSELFKDLFVELKRYYVVGNVNLEEMLNDFWARLLERMFRLVNSQYHFTDEYLECVSKYTEQLKPFGDVPRKLKLQVTRAFVAARTFAQGLAVAGDVVSKVSVVNPTAQCTHALLKMIYCSHCRGLVTVKPCYNYCSNIMRGCLANQGDLDFEWNNFIDAMLMVAERLEGPFNIESVMDPIDVKISDAIMNMQDNSVQVSQKVFQGCGPPKPLPAGRISRSISESAFSARFRPHHPEERPTTAAGTSLDRLVTDVKEKLKQAKKFWSSLPSNVCNDERMAAGNGNEDDCWNGKGKSRYLFAVTGNGLANQGNNPEVQVDTSKPDILILRQIMALRVMTSKMKNAYNGNDVDFFDISDESSGEGSGSGCEYQQCPSEFDYNATDHAGKSANEKADS
On to B1, for which the binding result in assay [1] and in assay [2] was “binds” each time.
